Experimental data from article PMC7819943, “Rice protein-binding microarrays: a tool to detect cis-acting elements near promoter regions in rice”.
This is one part of the list.

Each sequence was assayed against T1, OsSMF1 (Oryza sativa, UniProt Q6ZLB0 1-436) (assay: protein-binding microarray (RPBM); PBS, 2% BSA, 51.3 ng/ul salmon testes DNA, 50 uM zinc acetate, 200 nM TF, 25 C, 1 h; high values mean tight binding). Details: protein: recombinant; tags: N-terminal polyhistidine and DsRed monomer fusion (pET32a); chain copies: 2; label: CyDye5-dUTP incorporated in the synthesized complementary strand; 3' TTTTT single-stranded linker to array surface; dsDNA, one strand shown.
T1 sequence: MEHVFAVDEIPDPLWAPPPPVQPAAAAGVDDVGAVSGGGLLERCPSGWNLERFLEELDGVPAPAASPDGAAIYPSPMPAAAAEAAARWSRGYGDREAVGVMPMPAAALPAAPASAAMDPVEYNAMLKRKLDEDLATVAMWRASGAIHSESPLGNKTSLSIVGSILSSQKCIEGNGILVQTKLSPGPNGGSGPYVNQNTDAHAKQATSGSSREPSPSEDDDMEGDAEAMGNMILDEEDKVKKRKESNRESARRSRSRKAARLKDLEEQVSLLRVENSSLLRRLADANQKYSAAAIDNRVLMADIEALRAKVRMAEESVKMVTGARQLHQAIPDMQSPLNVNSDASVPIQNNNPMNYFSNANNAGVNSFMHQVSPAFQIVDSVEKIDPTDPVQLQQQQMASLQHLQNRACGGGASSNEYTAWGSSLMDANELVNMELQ
Summary of the method: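 Polyhistidine-tagged DsRed fusions of transcription factors, joined at the N-terminus, were expressed in E. coli BL21-CodonPlus and isolated on Ni–NTA. They were incubated at 200 nM for 1 h at 25 °C on a custom Agilent array, double-stranded and BSA-blocked, in PBS with 2% BSA, salmon testes DNA and 50 µM zinc acetate. The binding signal is per-feature fluorescence intensity (arbitrary units) read on an Axon 4000B scanner after washing.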

Sequence | binding signal
GGGGAGGAGGAGGTGCTGTTGCTCGATGGCTGTGCCGTGGCGGAGTCACCTAGTGCAG | 4170 fluorescence intensity (a.u.)
GGAGGAGGGAATGATCCAGAGCGTTGTACCTGGTGTTGGTCGGAGTCACCTAGTGCAG | 3740 fluorescence intensity (a.u.)
AGGCCGCGACGCAAATGGTGCGGTCACGCACACCGAAGTGCGGAGTCACCTAGTGCAG | 3260 fluorescence intensity (a.u.)
TCAAGTCCAATTCATGTTTCATGCCACGTTCGCCGTGCCGCGGAGTCACCTAGTGCAG | 7420 fluorescence intensity (a.u.)
TAAAGTTTCAATCTACTTTGAGAGATCTTTGATTTGTGTTCGGAGTCACCTAGTGCAG | 29700 fluorescence intensity (a.u.)
AAGGAGAGGGGAGAGAGATGAAGGGGAGTCGGGGAGAGAGCGGAGTCACCTAGTGCAG | 3620 fluorescence intensity (a.u.)
GCGGTTGAGGGATGACGACATGATGTGAGGAGAGAGGAACCGGAGTCACCTAGTGCAG | 3400 fluorescence intensity (a.u.)
CATCCCGCTCGCCGGCGTGCACCAGCGATCGGGAGAGCAGCGGAGTCACCTAGTGCAG | 3580 fluorescence intensity (a.u.)
CACAACCACTCTTTCCCTAACCCAATGACTAAGATGTAAGCGGAGTCACCTAGTGCAG | 3860 fluorescence intensity (a.u.)
CTTCCGTCAATTCTCGATCGTTTTCCGTCCGCCTTGATCGCGGAGTCACCTAGTGCAG | 7830 fluorescence intensity (a.u.)
ACTTTTATCACTGTCCATCTCCTCTATGCCGTGGACATGACGGAGTCACCTAGTGCAG | 3540 fluorescence intensity (a.u.)
GCCTGCGACACCTTATCCAGGGTCCCACTCGTCATAATCTCGGAGTCACCTAGTGCAG | 3850 fluorescence intensity (a.u.)
AAGCGGCGCGCATCCGATGGGCGACGCGTGTGCCCGCTCTCGGAGTCACCTAGTGCAG | 3140 fluorescence intensity (a.u.)
GCGCCAAAGAATCCAAAACAAAGACATCATCGCATCAGCCCGGAGTCACCTAGTGCAG | 4480 fluorescence intensity (a.u.)
GGGGATGAGCATTAGGTGTCTCGTCGATGATGTGTCGCGCCGGAGTCACCTAGTGCAG | 9620 fluorescence intensity (a.u.)
TCGTATCCAGAAGGTTCAGCATCACGTGTCCTCCTGGCCCCGGAGTCACCTAGTGCAG | 4090 fluorescence intensity (a.u.)
GAATTTTGCACTCACAAAACTGCATACGACATGATCCTGTCGGAGTCACCTAGTGCAG | 9890 fluorescence intensity (a.u.)
CATTGCTGTTTCCAAATCAGCTTGTACTACTACTACTTGTCGGAGTCACCTAGTGCAG | 3560 fluorescence intensity (a.u.)
CTAAATCTAGCAAGTTATATATTATAAACGTGAGTTTAAACGGAGTCACCTAGTGCAG | 14000 fluorescence intensity (a.u.)
CCTGCCATGACATATCAGCTCAGCTCAGCTCGACTTGTATCGGAGTCACCTAGTGCAG | 3250 fluorescence intensity (a.u.)
TTGCTGATGAAGATGCGCTTGTTGCTGACGGGAGAGCTGACGGAGTCACCTAGTGCAG | 8810 fluorescence intensity (a.u.)

3 successive entries already listed, quoted:
Sequence | binding signal
GGGGAGGAGGAGGTGCTGTTGCTCGATGGCTGTGCCGTGGCGGAGTCACCTAGTGCAG | 4170 fluorescence intensity (a.u.)
GGAGGAGGGAATGATCCAGAGCGTTGTACCTGGTGTTGGTCGGAGTCACCTAGTGCAG | 3740 fluorescence intensity (a.u.)
AGGCCGCGACGCAAATGGTGCGGTCACGCACACCGAAGTGCGGAGTCACCTAGTGCAG | 3260 fluorescence intensity (a.u.)

(listing goes on)

Sequence | binding signal
CCAAGTCGAAGCGGCGACGATGATCCAATCCGTGTTCAGGCGGAGTCACCTAGTGCAG | 5530 fluorescence intensity (a.u.)
TGCAGTAGTTGATGTGTGGTGTGTGTCAGATAAATCTGATCGGAGTCACCTAGTGCAG | 3850 fluorescence intensity (a.u.)
GCGGTTTCCTAGTTGACTGACCAAACAATTCATATATATTCGGAGTCACCTAGTGCAG | 6140 fluorescence intensity (a.u.)
GATTTTCTCAACAATATAGATACAGAGGCGAAGCCACGTGCGGAGTCACCTAGTGCAG | 3390 fluorescence intensity (a.u.)
CATGTGTGCCAAATTTGGTTGTTTGTCACGTTGCATTCCACGGAGTCACCTAGTGCAG | 3810 fluorescence intensity (a.u.)
GCCGACAAGAACCGCCCCTACATTGACTCGGCTTTGCCCTCGGAGTCACCTAGTGCAG | 3180 fluorescence intensity (a.u.)
AGGAATTGGTGGATGCGGTGAGGGGCTACGGGGTGGAAGACGGAGTCACCTAGTGCAG | 35600 fluorescence intensity (a.u.)
GCCCATGACTTCGTGATAAATACTAATAAATAGCCCATTACGGAGTCACCTAGTGCAG | 23200 fluorescence intensity (a.u.)
ACACACTTAAAGTACCAACGAAGCCATCAACCAGACAATTCGGAGTCACCTAGTGCAG | 14200 fluorescence intensity (a.u.)
AAAATAATTGCTTGAGGTTGCTCTAAGAAAATTGAACAGCCGGAGTCACCTAGTGCAG | 25800 fluorescence intensity (a.u.)
CGTCGAGGAGAGCCACCTCAGCTTCTTCCAGCGCTGGTGGCGGAGTCACCTAGTGCAG | 5050 fluorescence intensity (a.u.)
TTCAACGGCGCGTGCCGACGTGGCCGCTGCGGCGTGCGTGCGGAGTCACCTAGTGCAG | 10300 fluorescence intensity (a.u.)
GTTATCCGCGTGGATCCAGTTCGCTCGATCCGGTGTTTGTCGGAGTCACCTAGTGCAG | 4140 fluorescence intensity (a.u.)
CTCAACGAGTTCTTCCGCCGCACCTCAACGCGTCACCCCTCGGAGTCACCTAGTGCAG | 4550 fluorescence intensity (a.u.)
CGTGCTCTCTGAGCGCGTATACCTAATACCTCATATACACCGGAGTCACCTAGTGCAG | 4860 fluorescence intensity (a.u.)
GATTTCTTAGCACTAATGACACATCATTAGACCAGTGTTCCGGAGTCACCTAGTGCAG | 4380 fluorescence intensity (a.u.)
CCTGATTCACTATCGAGCTCCCGACGGCCACCTCGTCGACCGGAGTCACCTAGTGCAG | 3180 fluorescence intensity (a.u.)
GTGGGAACGGCCTGGCACTACGTGGGCCGTGGCCCATAGGCGGAGTCACCTAGTGCAG | 3140 fluorescence intensity (a.u.)
CCATTTCAACAGTTAATTTAGGCTATTTTGGCTTCAATCCCGGAGTCACCTAGTGCAG | 18600 fluorescence intensity (a.u.)
ACAACCACTTTTAACCCAAAGACCAAGAAATAATTATTATCGGAGTCACCTAGTGCAG | 31400 fluorescence intensity (a.u.)
TGGAAGTATACGAGTGAGCCACGTGCTCTGCTTTCCTTCTCGGAGTCACCTAGTGCAG | 3960 fluorescence intensity (a.u.)
